PubChem BioAssay AID1224830 – NIAID – 2016
Purpose: 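Genes whose knock-down alters the TNF-alpha reporter response to LPS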 (primary screen). System: human THP-1 monocytic leukaemia cells, TNF dual-luciferase reporter clone, PMA-differentiated to macrophage-like cells. Knock-down reagent: siRNA pool against human genes, 50 nM. Duration: LPS for 4 h, given about 3 days after siRNA transfection. Treatment: bacterial LPS (TLR4 ligand), 10 ng/ml. Detection: 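Ratio of firefly to renilla light, scaled to the plate median and expressed as a robust z-score per replicate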. Scale: TNF reporter robust z-score: higher = stronger TNF reporter response to LPS. Active means: 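a well is active when its z-score exceeds 2.8 or falls below -1.5; control wells carry no call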.
This is an unselected part of about 18,000 reagents tested. About 2,900 of them (16%) were called active. 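Calls are made per well; low scores hint the gene aids the LPS response, high scores that it dampens it.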 Repeated entries: four replicate wells of each siRNA pool. Reagent sequences are not shown.

| gene knocked down | TNF reporter robust z-score | activity call |
| --- | --- | --- |
| CHST2 | -0.04 | inactive |
| CHST2 | 0.04 | inactive |
| CHST2 | 0.67 | inactive |
| CHST2 | 1.17 | inactive |
| DNAJC9 | 3.27 | active |
| DNAJC9 | 2.18 | inactive |
| DNAJC9 | 3.49 | active |
| DNAJC9 | 0.28 | inactive |
| BAP1 | -0.14 | inactive |
| BAP1 | 0.26 | inactive |
| BAP1 | -0.3 | inactive |
| BAP1 | 1.6 | inactive |
| SPINK2 | -0.03 | inactive |
| SPINK2 | -0.71 | inactive |
| SPINK2 | -0.3 | inactive |
| SPINK2 | 0.65 | inactive |
| SPRR2A | -0.53 | inactive |
| SPRR2A | 1.54 | inactive |
| SPRR2A | -0.06 | inactive |
| SPRR2A | 0.05 | inactive |
| PER2 | 0.67 | inactive |
| PER2 | 0.65 | inactive |
| PER2 | 0.12 | inactive |
| PER2 | 1.04 | inactive |
| ARB2A | 0.02 | inactive |
| ARB2A | 0.2 | inactive |
| ARB2A | 0.12 | inactive |
| ARB2A | 0.34 | inactive |
| PDZD7 | 0.79 | inactive |
| PDZD7 | 1.25 | inactive |
| PDZD7 | 0.96 | inactive |
| PDZD7 | 0.39 | inactive |
| SYNM | -1.03 | inactive |
| SYNM | -0.53 | inactive |
| SYNM | -1.25 | inactive |
| SYNM | -0.91 | inactive |
| CD53 | 0.2 | inactive |
| CD53 | 0.72 | inactive |
| CD53 | 0.24 | inactive |
| CD53 | -0.1 | inactive |
| CRKL | -0.06 | inactive |
| CRKL | 1.19 | inactive |
| CRKL | 0.6 | inactive |
| CRKL | -0.23 | inactive |
| MAGIX | -1.37 | inactive |
| MAGIX | -0.63 | inactive |
| MAGIX | -0.92 | inactive |
| MAGIX | -0.11 | inactive |
| DYNC2LI1 | -1.42 | inactive |
| DYNC2LI1 | -0.74 | inactive |
| DYNC2LI1 | -0.7 | inactive |
| DYNC2LI1 | -1.59 | active |
| KLF2 | -1.82 | active |
| KLF2 | -0.9 | inactive |
| KLF2 | -0.88 | inactive |
| KLF2 | -0.83 | inactive |
| NKX6-1 | -0.64 | inactive |
| NKX6-1 | -0.25 | inactive |
| NKX6-1 | -0.97 | inactive |
| NKX6-1 | -0.41 | inactive |
| KCNC2 | -0.44 | inactive |
| KCNC2 | 0.11 | inactive |
| KCNC2 | 0.64 | inactive |
| KCNC2 | 0.3 | inactive |
| FABP1 | -0.89 | inactive |
| FABP1 | -0.8 | inactive |
| FABP1 | -1.06 | inactive |
| FABP1 | -0.65 | inactive |
| SPRY1 | -0.47 | inactive |
| SPRY1 | 1.77 | inactive |
| SPRY1 | 0.46 | inactive |
| SPRY1 | 1.75 | inactive |
| MARF1 | 2.54 | inactive |
| MARF1 | 1.86 | inactive |
| MARF1 | 1.7 | inactive |
| MARF1 | -0.55 | inactive |
| ISL2 | -0.28 | inactive |
| ISL2 | 0.94 | inactive |
| ISL2 | 1.31 | inactive |
| ISL2 | 1.37 | inactive |
| GCLM | -0.05 | inactive |
| GCLM | -0.44 | inactive |
| GCLM | -0.09 | inactive |
| GCLM | 0.13 | inactive |
| AGO3 | 0.05 | inactive |
| AGO3 | 0.49 | inactive |
| AGO3 | -0.79 | inactive |
| AGO3 | 0 | inactive |
| DOK6 | 0.89 | inactive |
| DOK6 | -0.17 | inactive |
| DOK6 | 0.68 | inactive |
| DOK6 | -0.28 | inactive |
| PAK6-AS1 | 0.73 | inactive |
| PAK6-AS1 | 0.02 | inactive |
| PAK6-AS1 | -0.37 | inactive |
| PAK6-AS1 | 0.43 | inactive |
| POLR1G | 0.39 | inactive |
| POLR1G | 1.11 | inactive |
| POLR1G | 1.35 | inactive |
| POLR1G | 2.59 | inactive |
| DYNC2H1 | -1.12 | inactive |
| DYNC2H1 | 0.33 | inactive |
| DYNC2H1 | -0.37 | inactive |
| DYNC2H1 | -0.73 | inactive |
| RHCE | -0.65 | inactive |
| RHCE | -1.02 | inactive |
| RHCE | -0.46 | inactive |
| RHCE | -0.59 | inactive |
| ODAPH | -1.72 | active |
| ODAPH | -1.43 | inactive |
| ODAPH | -1.09 | inactive |
| ODAPH | -1.54 | active |

Called active (from the list above):
| gene knocked down | TNF reporter robust z-score | activity call |
| --- | --- | --- |
| DNAJC9 | 3.27 | active |
| DNAJC9 | 3.49 | active |
| DYNC2LI1 | -1.59 | active |
| KLF2 | -1.82 | active |
| ODAPH | -1.72 | active |
| ODAPH | -1.54 | active |
